Experimental data: the supplement of paper PMC10849652
This is one part of the list. Residues, ends and D or L forms follow the SMILES beside them. *: point of attachment. Cbz = O=C(OCc1ccccc1)*

Chains of the proteins cited; added tags and fusions are not shown. Lines headed by an entry give the natural chain unless they say otherwise; changes in a name come on top.
UniProt Q6DD87: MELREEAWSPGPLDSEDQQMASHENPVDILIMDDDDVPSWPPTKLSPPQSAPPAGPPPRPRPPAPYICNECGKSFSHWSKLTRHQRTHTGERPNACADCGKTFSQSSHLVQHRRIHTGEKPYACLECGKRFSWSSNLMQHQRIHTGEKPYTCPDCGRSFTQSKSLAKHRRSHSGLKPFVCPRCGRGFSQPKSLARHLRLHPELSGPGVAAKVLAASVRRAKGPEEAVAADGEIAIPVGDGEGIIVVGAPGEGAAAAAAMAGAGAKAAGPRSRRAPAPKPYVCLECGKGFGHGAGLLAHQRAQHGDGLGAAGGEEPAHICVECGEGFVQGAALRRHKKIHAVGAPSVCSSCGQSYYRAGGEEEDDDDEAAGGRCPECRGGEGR
UniProt Q2TB10: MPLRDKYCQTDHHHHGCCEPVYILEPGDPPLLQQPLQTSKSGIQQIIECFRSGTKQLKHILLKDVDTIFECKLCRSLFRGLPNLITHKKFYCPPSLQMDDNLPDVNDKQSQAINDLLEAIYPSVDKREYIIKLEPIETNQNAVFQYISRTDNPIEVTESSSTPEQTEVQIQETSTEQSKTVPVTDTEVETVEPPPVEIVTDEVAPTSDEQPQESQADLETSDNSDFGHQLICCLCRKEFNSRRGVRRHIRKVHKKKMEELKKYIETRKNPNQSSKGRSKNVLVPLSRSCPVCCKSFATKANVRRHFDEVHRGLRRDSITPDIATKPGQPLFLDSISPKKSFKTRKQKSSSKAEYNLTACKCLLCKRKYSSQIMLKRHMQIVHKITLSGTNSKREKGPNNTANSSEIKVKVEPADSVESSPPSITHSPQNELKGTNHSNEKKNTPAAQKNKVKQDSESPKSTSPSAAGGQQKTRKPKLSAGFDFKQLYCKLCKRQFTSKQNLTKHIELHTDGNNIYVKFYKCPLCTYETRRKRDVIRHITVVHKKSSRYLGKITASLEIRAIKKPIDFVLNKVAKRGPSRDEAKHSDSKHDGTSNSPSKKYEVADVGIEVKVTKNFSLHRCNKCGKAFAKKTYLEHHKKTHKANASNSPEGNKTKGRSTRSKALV
UniProt Q96NB3: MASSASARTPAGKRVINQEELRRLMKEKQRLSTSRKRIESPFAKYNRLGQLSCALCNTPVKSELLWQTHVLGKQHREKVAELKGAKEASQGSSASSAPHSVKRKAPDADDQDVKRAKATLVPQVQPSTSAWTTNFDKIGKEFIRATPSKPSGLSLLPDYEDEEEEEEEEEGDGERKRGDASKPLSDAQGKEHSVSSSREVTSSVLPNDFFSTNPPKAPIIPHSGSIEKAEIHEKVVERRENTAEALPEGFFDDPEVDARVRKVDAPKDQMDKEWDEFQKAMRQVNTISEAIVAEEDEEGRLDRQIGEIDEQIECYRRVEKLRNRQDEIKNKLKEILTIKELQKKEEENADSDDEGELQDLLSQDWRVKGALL
UniProt O43257, whole entry, looked up: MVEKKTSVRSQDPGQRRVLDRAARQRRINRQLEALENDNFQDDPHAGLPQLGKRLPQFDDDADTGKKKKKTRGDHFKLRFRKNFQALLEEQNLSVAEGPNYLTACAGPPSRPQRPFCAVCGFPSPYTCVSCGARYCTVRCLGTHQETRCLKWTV
UniProt Q15649: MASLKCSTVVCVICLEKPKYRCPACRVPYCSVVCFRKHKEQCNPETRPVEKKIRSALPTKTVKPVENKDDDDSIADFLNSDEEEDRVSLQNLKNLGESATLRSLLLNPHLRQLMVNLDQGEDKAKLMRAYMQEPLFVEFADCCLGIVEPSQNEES
UniProt Q9P1U0, whole entry, looked up: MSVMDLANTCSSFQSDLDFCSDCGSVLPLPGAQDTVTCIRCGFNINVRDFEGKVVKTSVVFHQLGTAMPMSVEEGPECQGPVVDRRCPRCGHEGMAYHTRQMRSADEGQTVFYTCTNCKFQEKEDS
UniProt Q8ND25: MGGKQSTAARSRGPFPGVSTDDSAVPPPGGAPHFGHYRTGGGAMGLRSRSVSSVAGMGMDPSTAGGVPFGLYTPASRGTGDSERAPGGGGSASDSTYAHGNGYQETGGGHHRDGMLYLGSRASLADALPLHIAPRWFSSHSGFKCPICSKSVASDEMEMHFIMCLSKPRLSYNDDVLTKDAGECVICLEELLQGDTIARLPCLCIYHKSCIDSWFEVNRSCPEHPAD
UniProt O75312: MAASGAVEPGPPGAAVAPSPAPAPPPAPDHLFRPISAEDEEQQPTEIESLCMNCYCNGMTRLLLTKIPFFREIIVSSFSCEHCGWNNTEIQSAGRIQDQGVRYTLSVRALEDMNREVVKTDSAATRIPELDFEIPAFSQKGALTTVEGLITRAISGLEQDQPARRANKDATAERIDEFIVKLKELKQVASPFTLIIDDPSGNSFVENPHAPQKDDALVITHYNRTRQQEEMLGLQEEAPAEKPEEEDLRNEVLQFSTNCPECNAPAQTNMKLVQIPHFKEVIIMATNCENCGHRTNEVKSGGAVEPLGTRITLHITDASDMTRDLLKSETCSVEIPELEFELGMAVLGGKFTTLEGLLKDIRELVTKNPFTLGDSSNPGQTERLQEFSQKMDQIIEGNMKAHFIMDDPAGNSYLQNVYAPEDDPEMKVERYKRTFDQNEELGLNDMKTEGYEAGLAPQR
UniProt Q19AV6: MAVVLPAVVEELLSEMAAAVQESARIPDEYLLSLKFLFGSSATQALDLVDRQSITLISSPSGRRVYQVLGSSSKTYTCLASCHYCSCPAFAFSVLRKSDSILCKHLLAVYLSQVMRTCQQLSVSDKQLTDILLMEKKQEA
UniProt O95218: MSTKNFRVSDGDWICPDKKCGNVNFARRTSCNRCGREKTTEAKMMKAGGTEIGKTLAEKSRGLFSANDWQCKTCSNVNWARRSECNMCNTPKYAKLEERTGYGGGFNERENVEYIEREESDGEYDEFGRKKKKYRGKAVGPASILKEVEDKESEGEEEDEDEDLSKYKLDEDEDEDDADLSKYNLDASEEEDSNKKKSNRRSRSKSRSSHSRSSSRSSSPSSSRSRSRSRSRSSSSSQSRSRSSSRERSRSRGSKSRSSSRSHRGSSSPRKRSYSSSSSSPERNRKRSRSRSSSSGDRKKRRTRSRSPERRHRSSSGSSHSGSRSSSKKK
UniProt O43264: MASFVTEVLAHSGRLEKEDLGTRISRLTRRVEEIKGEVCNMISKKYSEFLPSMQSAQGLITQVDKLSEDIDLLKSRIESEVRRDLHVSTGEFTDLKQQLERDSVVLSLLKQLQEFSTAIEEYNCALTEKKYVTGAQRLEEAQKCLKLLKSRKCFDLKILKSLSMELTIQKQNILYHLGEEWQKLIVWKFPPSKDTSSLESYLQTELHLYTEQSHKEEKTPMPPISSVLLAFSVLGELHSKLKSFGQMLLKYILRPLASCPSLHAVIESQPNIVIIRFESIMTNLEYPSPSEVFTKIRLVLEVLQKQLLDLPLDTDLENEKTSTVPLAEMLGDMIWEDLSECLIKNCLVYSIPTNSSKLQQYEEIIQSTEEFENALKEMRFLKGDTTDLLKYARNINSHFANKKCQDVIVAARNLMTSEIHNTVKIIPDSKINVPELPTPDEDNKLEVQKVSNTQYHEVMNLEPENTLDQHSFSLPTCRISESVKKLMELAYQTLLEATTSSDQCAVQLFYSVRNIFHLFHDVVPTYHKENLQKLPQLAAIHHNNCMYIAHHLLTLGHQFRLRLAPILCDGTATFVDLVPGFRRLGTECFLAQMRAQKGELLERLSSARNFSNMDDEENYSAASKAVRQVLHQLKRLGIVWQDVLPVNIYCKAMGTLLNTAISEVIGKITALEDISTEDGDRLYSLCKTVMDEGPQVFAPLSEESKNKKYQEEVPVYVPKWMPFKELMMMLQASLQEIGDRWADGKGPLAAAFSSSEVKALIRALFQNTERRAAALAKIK
UniProt Q9P2E3: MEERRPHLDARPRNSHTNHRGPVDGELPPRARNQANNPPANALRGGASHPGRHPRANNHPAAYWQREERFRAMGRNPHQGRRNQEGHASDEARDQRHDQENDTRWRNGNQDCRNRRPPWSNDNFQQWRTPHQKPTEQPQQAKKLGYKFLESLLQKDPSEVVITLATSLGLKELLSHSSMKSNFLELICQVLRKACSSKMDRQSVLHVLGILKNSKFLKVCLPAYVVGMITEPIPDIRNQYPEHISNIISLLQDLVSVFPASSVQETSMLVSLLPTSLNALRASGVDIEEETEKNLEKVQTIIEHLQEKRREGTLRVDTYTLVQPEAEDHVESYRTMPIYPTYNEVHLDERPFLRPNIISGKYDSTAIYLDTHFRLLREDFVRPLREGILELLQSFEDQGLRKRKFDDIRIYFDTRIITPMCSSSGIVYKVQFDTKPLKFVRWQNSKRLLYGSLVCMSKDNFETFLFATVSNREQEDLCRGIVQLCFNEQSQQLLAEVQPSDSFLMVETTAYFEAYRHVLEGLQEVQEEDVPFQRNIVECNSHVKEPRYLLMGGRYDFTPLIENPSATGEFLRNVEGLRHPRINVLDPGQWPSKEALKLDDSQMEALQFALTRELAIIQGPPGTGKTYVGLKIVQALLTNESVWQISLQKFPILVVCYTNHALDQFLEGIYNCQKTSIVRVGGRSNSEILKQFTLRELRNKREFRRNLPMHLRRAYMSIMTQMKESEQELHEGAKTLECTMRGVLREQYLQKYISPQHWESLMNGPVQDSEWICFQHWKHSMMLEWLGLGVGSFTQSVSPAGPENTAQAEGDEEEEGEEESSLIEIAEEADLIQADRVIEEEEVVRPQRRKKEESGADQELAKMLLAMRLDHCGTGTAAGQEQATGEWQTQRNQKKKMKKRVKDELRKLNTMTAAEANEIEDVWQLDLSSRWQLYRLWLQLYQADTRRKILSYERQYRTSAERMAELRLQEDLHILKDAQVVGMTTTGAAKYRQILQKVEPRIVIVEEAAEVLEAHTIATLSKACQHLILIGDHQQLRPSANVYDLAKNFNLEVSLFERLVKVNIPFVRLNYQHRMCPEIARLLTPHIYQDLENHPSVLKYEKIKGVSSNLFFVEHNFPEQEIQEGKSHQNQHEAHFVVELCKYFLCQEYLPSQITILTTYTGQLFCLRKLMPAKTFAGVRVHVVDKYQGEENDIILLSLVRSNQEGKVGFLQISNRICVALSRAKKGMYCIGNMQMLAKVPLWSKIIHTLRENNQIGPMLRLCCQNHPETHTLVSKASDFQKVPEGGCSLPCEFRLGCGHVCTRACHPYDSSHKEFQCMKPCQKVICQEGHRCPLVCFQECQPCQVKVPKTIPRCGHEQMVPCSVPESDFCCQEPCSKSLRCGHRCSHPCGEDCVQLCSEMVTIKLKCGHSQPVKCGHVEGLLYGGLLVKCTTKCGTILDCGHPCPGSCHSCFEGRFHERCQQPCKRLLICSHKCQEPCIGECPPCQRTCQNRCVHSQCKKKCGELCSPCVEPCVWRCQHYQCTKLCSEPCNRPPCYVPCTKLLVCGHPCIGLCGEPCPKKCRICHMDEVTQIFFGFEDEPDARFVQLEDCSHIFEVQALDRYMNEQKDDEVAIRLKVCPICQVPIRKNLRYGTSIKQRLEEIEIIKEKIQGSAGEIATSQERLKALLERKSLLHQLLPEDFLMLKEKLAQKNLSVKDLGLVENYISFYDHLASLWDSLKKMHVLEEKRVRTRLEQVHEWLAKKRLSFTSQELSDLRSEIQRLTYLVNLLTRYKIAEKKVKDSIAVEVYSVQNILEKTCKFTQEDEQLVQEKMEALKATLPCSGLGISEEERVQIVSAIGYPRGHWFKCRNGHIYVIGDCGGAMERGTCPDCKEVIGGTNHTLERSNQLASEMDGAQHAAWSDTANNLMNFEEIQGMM
UniProt Q9Y5A6: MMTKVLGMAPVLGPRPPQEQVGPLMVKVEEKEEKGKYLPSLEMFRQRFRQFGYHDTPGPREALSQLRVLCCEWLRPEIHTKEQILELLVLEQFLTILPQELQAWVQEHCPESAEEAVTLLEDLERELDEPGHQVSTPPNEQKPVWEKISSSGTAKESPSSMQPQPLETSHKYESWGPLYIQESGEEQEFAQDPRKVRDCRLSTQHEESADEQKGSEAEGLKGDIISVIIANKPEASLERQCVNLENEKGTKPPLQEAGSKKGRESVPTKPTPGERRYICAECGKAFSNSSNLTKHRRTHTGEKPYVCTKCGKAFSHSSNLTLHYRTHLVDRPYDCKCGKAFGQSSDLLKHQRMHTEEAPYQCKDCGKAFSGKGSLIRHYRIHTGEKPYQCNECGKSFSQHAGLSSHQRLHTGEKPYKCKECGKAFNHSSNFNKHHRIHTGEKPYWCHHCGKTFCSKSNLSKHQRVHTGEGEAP
UniProt Q9UHR6: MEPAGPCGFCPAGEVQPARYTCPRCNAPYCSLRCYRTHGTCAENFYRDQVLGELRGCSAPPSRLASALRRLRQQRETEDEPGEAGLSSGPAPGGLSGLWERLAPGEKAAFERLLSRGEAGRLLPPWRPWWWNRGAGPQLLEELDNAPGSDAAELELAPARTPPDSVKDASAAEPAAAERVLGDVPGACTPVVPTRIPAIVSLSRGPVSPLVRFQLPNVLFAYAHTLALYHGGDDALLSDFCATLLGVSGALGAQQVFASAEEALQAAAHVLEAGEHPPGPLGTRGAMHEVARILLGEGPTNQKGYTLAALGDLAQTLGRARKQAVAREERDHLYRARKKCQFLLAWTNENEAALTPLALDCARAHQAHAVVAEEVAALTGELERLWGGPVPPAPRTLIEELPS

Experiments:
Experiment in all cases: log2 fold change, soluble protein after heating vs DMSO (PISA); higher = thermal stabilisation; K562 cells, 10 uM, 30 min; active = over 0.2 and 3.5 SD of the protein, either way, in both replicates (recomputed)
ZNF787 = ZNF787 (UniProt Q6DD87)
Summary of the method: (§1)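 K562 cells (2×10^6 cells/mL) were treated with 10 μM compound for 30 min, and aliquots were heated for 3 min over 48°C-58°C. Pooled aliquots were extracted in PBS with 0.5% NP-40 at 4°C, and the supernatant after 21,000xg for 90 min was measured by TMTpro 16plex LC-MS/MS with channel sums equalised. Reported thermal stability, relative to control samples and from duplicates, is a log2 fold change.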

ZNF800 = ZNF800 (UniProt Q2TB10)
Summary of the method: as §1

ZNF830 = ZNF830 (UniProt Q96NB3)
Summary of the method: as §1

ZNHIT1 = ZNHIT1 (UniProt O43257)
Summary of the method: as §1

ZNHIT3 = ZNHIT3 (UniProt Q15649)
Summary of the method: as §1

ZNHIT6 = ZNHIT6 (UniProt Q9NWK9)
Summary of the method: as §1

ZNRD1 = ZNRD1 (UniProt Q9P1U0)
Summary of the method: as §1

ZNRD2 [1] = target: ZNRD2 (UniProt O60232)
Summary of the method: as §1

ZNRF1 isoform 2 = ZNRF1 isoform 2 (UniProt Q8ND25)
Summary of the method: as §1

ZNRF2 = ZNRF2 (UniProt Q8NHG8)
Summary of the method: as §1

ZPR1 = ZPR1 (UniProt O75312)
Summary of the method: as §1

ZSWIM7 = ZSWIM7 (UniProt Q19AV6)
Summary of the method: as §1

ZRANB2 = ZRANB2 (UniProt O95218)
Summary of the method: as §1

ZW10 = ZW10 (UniProt O43264)
Summary of the method: as §1

ZNF852 = ZNF852 (UniProt Q6ZMS4)
Summary of the method: as §1

ZNFX1 = ZNFX1 (UniProt Q9P2E3)
Summary of the method: as §1

ZNRD2 [2] = target: ZNRD2 (UniProt G3V1B8)
Summary of the method: as §1

ZSCAN21 = ZSCAN21 (UniProt Q9Y5A6)
Summary of the method: as §1

ZNHIT2 = ZNHIT2 (UniProt Q9UHR6)
Summary of the method: as §1

ZSCAN26 = ZSCAN26 (UniProt Q16670)
Summary of the method: as §1

Measured: log2 fold change

CC1=C(C(=O)Nc2cc3cn[nH]c3cc2F)C(c2ccc(C(F)(F)F)cc2)CC(=O)N1 (centres undefined)
inactive: ZNF787 = 0.062 | ZNF800 = 0.075 | ZNF830 = 0.001 | ZNHIT1 = 0.064 | ZNHIT3 = 0.106 | ZNHIT6 = -0.054 | ZNRD1 = 0.237 | ZNRD2 [1] 0.044 | ZNRF1 isoform 2 = 0.127 | ZNRF2 = -0.047 | ZPR1 = -0.013 | ZSWIM7 = -0.017

Cc1nc(Nc2n[nH]c3c2CN(C(=O)N[C@H](CN(C)C)c2ccccc2)C3(C)C)c2sccc2n1
inactive: ZNF787 = -0.056 | ZNF800 = -0.425 | ZNF830 = 0.029 | ZNHIT1 = 0.044 | ZNHIT3 = -0.004 | ZNHIT6 = 0.122 | ZNRD1 = 0.036 | ZNRD2 [1] 0.018 | ZNRF1 isoform 2 = 0.147 | ZNRF2 = 0.168 | ZPR1 = -0.027 | ZRANB2 = -0.032 | ZSWIM7 = -0.04 | ZW10 = -0.11

CC(C)(O)CC(=O)NCCn1ccc2ncnc(Nc3ccc(Oc4cccc(C(F)(F)F)c4)c(Cl)c3)c21
inactive: ZNF787 = 0.079 | ZNF830 = -0.003 | ZNF852 = 0.216 | ZNFX1 = 0.282 | ZNHIT1 = 0.025 | ZNHIT3 = -0.036 | ZNRD1 = 0.104 | ZNRD2 [2] -0.114 | ZNRD2 [1] -0.051 | ZNRF2 = 0.116 | ZPR1 = -0.005 | ZRANB2 = -0.012 | ZSCAN21 = 0.002 | ZW10 = -0.027

NC(=O)c1cnc(N[C@@H]2CCCC[C@@H]2N)nc1Nc1cccc(-n2nccn2)c1
inactive: ZNF787 = 0 | ZNF830 = 0.036 | ZNHIT1 = -0.151 | ZNHIT3 = 0.063 | ZNHIT6 = 0.004 | ZNRD1 = 0.103 | ZNRD2 [2] 0.064 | ZNRD2 [1] 0.037 | ZNRF1 isoform 2 = 0.085 | ZNRF2 = -0.006 | ZPR1 = -0.024 | ZRANB2 = 0.002 | ZW10 = -0.027

NCC(=O)Nc1ccc(-n2nc(C(F)(F)F)cc2-c2ccc3c(ccc4ccccc43)c2)cc1
inactive: ZNF787 = 0.062 | ZNF830 = 0.063 | ZNFX1 = -0.162 | ZNHIT2 = -0.18 | ZNHIT3 = 0.066 | ZNHIT6 = 0.134 | ZNRD1 = 0.043 | ZNRD2 [1] -0.008 | ZNRF1 isoform 2 = 0.054 | ZNRF2 = 0.091 | ZPR1 = -0.024 | ZRANB2 = 0.067 | ZSWIM7 = -0.021 | ZW10 = -0.007

CS(=O)(=O)CCNCc1ccc(-c2ccc3ncnc(Nc4ccc(OCc5cccc(F)c5)c(Cl)c4)c3c2)o1 [lapatinib]
inactive: ZNF787 = 0.024 | ZNF830 = 0.087 | ZNF852 = 0.009 | ZNHIT2 = 0.085 | ZNHIT3 = -0.047 | ZNHIT6 = -0.04 | ZNRD1 = -0.014 | ZNRD2 [1] -0.024 | ZNRF1 isoform 2 = 0.138 | ZNRF2 = 0.023 | ZPR1 = -0.012 | ZRANB2 = 0.018 | ZSCAN26 = 0.138 | ZW10 = -0.01

Cc1ccc(NC(=O)c2ccc(CN3CC[C@H](N(C)C)C3)c(C(F)(F)F)c2)cc1Nc1nccc(-c2cncnc2)n1 [bafetinib]
inactive: ZNF787 = 0.215 | ZNF830 = -0.063 | ZNHIT1 = 0.068 | ZNHIT3 = -0.143 | ZNHIT6 = -0.211 | ZNRD1 = 0.158 | ZNRD2 [2] -0.048 | ZNRD2 [1] -0.015 | ZNRF1 isoform 2 = 0.05 | ZNRF2 = -0.082 | ZPR1 = -0.06 | ZRANB2 = -0.014 | ZSWIM7 = 0.156 | ZW10 = 0.003

CN(C)CC(=O)Nc1ccc2[nH]c(=O)c3ccccc3c2c1
inactive: ZNF787 = -0.075 | ZNF830 = -0.067 | ZNFX1 = -0.044 | ZNHIT2 = 0.155 | ZNHIT3 = -0.089 | ZNHIT6 = 0.117 | ZNRD1 = 0.033 | ZNRD2 [1] 0.015 | ZNRF1 isoform 2 = -0.021 | ZNRF2 = -0.029 | ZPR1 = 0.008 | ZRANB2 = -0.048 | ZSWIM7 = 0.12 | ZW10 = 0.013

O=C1NC(=O)/C(=C\c2ccc3nccnc3c2)S1
inactive: ZNF787 = 0 | ZNF830 = 0.028 | ZNHIT1 = -0.109 | ZNHIT3 = 0.074 | ZNHIT6 = 0.026 | ZNRD1 = -0.105 | ZNRD2 [2] -0.002 | ZNRD2 [1] 0.086 | ZNRF1 isoform 2 = -0.081 | ZNRF2 = -0.058 | ZPR1 = 0.017 | ZRANB2 = 0.051 | ZSWIM7 = -0.026 | ZW10 = -0.009

COc1cc2nc(-c3cc(F)ccc3O)nc(N[C@@H]3CNC[C@H]3C(C)(C)O)c2cc1OC
inactive: ZNF787 = 0.007 | ZNF830 = -0.08 | ZNF852 = -0.108 | ZNHIT2 = 0.34 | ZNHIT3 = 0.007 | ZNHIT6 = 0.03 | ZNRD1 = 0.192 | ZNRD2 [1] -0.062 | ZNRF1 isoform 2 = -0.089 | ZNRF2 = 0.094 | ZPR1 = 0.049 | ZRANB2 = -0.006 | ZSCAN26 = -0.315 | ZW10 = 0.041

CN(CCOc1ccc(C[C@@H]2SC(=O)NC2=O)cc1)c1ccccn1 (racemic) [rosiglitazone]
inactive: ZNF787 = -0.085 | ZNF830 = -0.01 | ZNHIT1 = 0.081 | ZNHIT3 = -0.03 | ZNHIT6 = -0.038 | ZNRD1 = -0.22 | ZNRD2 [2] -0.043 | ZNRD2 [1] 0.005 | ZNRF1 isoform 2 = -0.136 | ZNRF2 = -0.009 | ZPR1 = 0.017 | ZSWIM7 = -0.057

CNC(=O)c1ccc(Nc2ncc(C(F)(F)F)c(NCc3nccnc3N(C)S(C)(=O)=O)n2)cc1 [defactinib]
inactive: ZNF787 = 0.193 | ZNF830 = -0.009 | ZNFX1 = 0.334 | ZNHIT2 = 0.133 | ZNHIT3 = -0.006 | ZNHIT6 = -0.348 | ZNRD1 = 0.075 | ZNRD2 [1] -0.051 | ZNRF1 isoform 2 = 0.09 | ZNRF2 = 0.079 | ZPR1 = -0.028 | ZRANB2 = -0.046 | ZSWIM7 = 0.111 | ZW10 = -0.083

Cc1ccc(Sc2cncc3sc(C(N)=O)cc23)cc1
inactive: ZNF787 = -0.035 | ZNF830 = 0.017 | ZNF852 = -0.193 | ZNHIT2 = -0.028 | ZNHIT3 = -0.035 | ZNHIT6 = -0.07 | ZNRD1 = 0.175 | ZNRD2 [1] 0.027 | ZNRF1 isoform 2 = 0.036 | ZNRF2 = 0.067 | ZPR1 = 0.018 | ZRANB2 = -0.04 | ZSCAN26 = -0.092 | ZW10 = 0.018

CC(C)(C)Cn1c(N)nc2ccc(-c3[nH]c(C(C)(C)C)nc3-c3ccc(F)cc3)nc21 [ralimetinib]
inactive: ZNF787 = 0.142 | ZNF830 = -0.047 | ZNF852 = -0.136 | ZNHIT2 = 0.176 | ZNHIT3 = -0.141 | ZNRD1 = 0.027 | ZNRD2 [2] -0.087 | ZNRD2 [1] -0.079 | ZNRF1 isoform 2 = 0.043 | ZNRF2 = -0.034 | ZPR1 = -0.061 | ZRANB2 = -0.014 | ZW10 = 0.032

O=C1c2ccccc2-c2n[nH]c3cccc1c23
inactive: ZNF787 = 0 | ZNF830 = 0.014 | ZNHIT1 = -0.111 | ZNHIT3 = -0.104 | ZNHIT6 = -0.208 | ZNRD1 = -0.189 | ZNRD2 [2] 0.028 | ZNRD2 [1] -0.041 | ZNRF1 isoform 2 = -0.099 | ZNRF2 = -0.004 | ZPR1 = 0.004 | ZRANB2 = -0.059 | ZW10 = -0.031

At a glance, two of the compounds above.
CC(C)(C)Cn1c(N)nc2ccc(-c3[nH]c(C(C)(C)C)nc3-c3ccc(F)cc3)nc21 [ralimetinib]
inactive: ZNF787 = 0.142 | ZNF830 = -0.047 | ZNF852 = -0.136 | ZNHIT2 = 0.176 | ZNHIT3 = -0.141 | ZNRD1 = 0.027 | ZNRD2 [2] -0.087 | ZNRD2 [1] -0.079 | ZNRF1 isoform 2 = 0.043 | ZNRF2 = -0.034 | ZPR1 = -0.061 | ZRANB2 = -0.014 | ZW10 = 0.032

O=C1c2ccccc2-c2n[nH]c3cccc1c23
inactive: ZNF787 = 0 | ZNF830 = 0.014 | ZNHIT1 = -0.111 | ZNHIT3 = -0.104 | ZNHIT6 = -0.208 | ZNRD1 = -0.189 | ZNRD2 [2] 0.028 | ZNRD2 [1] -0.041 | ZNRF1 isoform 2 = -0.099 | ZNRF2 = -0.004 | ZPR1 = 0.004 | ZRANB2 = -0.059 | ZW10 = -0.031

Continuation.

CC(C)C[C@@H](C=O)NC(=O)[C@H](CC(C)C)NC(=O)[C@H](CC(C)C)NC(=O)OCc1ccccc1 (Cbz-Leu-Leu-Leu-aldehyde)
inactive: ZNF787 = 0.116 | ZNF830 = -0.015 | ZNF852 = 0.239 | ZNHIT2 = 0.192 | ZNHIT3 = 0.215 | ZNRD1 = 0.062 | ZNRD2 [2] 0 | ZNRD2 [1] -0.033 | ZNRF1 isoform 2 = 0.114 | ZNRF2 = 0.038 | ZPR1 = -0.006 | ZRANB2 = -0.027 | ZW10 = 0.007

C=CC(=O)N1CCC[C@@H](n2nc(-c3ccc(Oc4ccccc4)cc3)c3c(N)ncnc32)C1 [ibrutinib]
inactive: ZNF787 = 0.07 | ZNF830 = 0.021 | ZNHIT1 = -0.001 | ZNHIT3 = -0.022 | ZNHIT6 = -0.14 | ZNRD1 = -0.098 | ZNRD2 [2] -0.019 | ZNRD2 [1] -0.02 | ZNRF1 isoform 2 = -0.245 | ZNRF2 = 0.047 | ZPR1 = -0.042 | ZRANB2 = 0.013 | ZSWIM7 = 0.047 | ZW10 = -0.007

CNC(=O)c1ccccc1Nc1nc(Nc2ccc(N3CCOCC3)cc2OC)ncc1Cl
inactive: ZNF787 = 0.001 | ZNF830 = -0.069 | ZNF852 = 0.064 | ZNHIT1 = -0.311 | ZNHIT3 = -0.021 | ZNHIT6 = 0.024 | ZNRD1 = 0.057 | ZNRD2 [2] -0.14 | ZNRD2 [1] -0.02 | ZNRF1 isoform 2 = -0.054 | ZNRF2 = 0.007 | ZPR1 = 0.021 | ZRANB2 = 0.002 | ZSWIM7 = 0.031 | ZW10 = 0.035

CCN(CCCOc1ccc2c(Nc3cc(CC(=O)Nc4cccc(F)c4)[nH]n3)ncnc2c1)CCOP(=O)(O)O [barasertib]
inactive: ZNF787 = -0.083 | ZNF830 = -0.003 | ZNHIT1 = -0.064 | ZNHIT3 = 0.019 | ZNHIT6 = 0.075 | ZNRD1 = -0.358 | ZNRD2 [2] 0.107 | ZNRD2 [1] 0.027 | ZNRF1 isoform 2 = 0.024 | ZNRF2 = 0.015 | ZPR1 = 0.036 | ZRANB2 = -0.01 | ZSWIM7 = -0.159 | ZW10 = 0.055
